These results are taken from PubChem BioAssay AID2685 (National Center for Advancing Translational Sciences (NCATS), 2010).

Some of the results follow. Shown are side measurements of this screen, not its main read-out; they come without a call. Compounds called inactive in the main read-out are mostly missing here. Words in brackets tell the shape of the fitted curve; partial curves, single points and poor fits give uncertain potencies.

The nature of this experiment: qHTS Assay for Lipid Storage Modulators in Drosophila S3 Cells.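 For cell number change: cells counted by Cell Tracker Red CMTPX staining in the red channel.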 Particulars: BODIPY lipid droplet fluorescence, 18-24 h; for cell number change: measured here: cell count max response, cells fed with added oleic acid. The essentials: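 Laser-scanning cytometry quantifies lipid droplet accumulation (500–530 nm total intensity; droplet/cell object ratio) in oleic acid-fed (400 uM added) Drosophila S3 cells treated with a concentration series. 20 uM Triacsin C defined 100% inhibition.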

Where [1] appears, read: measured here: lipid fluorescence (Fed channel) AC50, cells fed with added oleic acid.
[2] abbreviates: measured here: cell number channel AC50, cells fed with added oleic acid.

As to `O=C(c1ccc2c(c1)OCCO2)C1CCN(C(=O)c2ccc(F)c(F)c2)CC1`, the cell number change was -21.8%. Under setting [1], the half-maximal activity concentration (AC50) is 2.59 µM [rising, single point].
As to `C/C(=N\Nc1c(F)c(F)c(Br)c(F)c1F)c1ccncc1`, the cell number change was -39.2%. The half-maximal activity concentration (AC50) under setting [2] was 16.4 µM [falling, single point]. The AC50 under setting [1] is 1.64 µM [falling, partial curve].
Turning to `O=C(Nc1cccc(CNCCc2c[nH]c3ccccc23)c1)c1ccccc1Cl`, the cell number change came out at 27.9%. Further, the concentration at half-maximal activity (AC50) under setting [1] is 11.6 µM [rising, partial curve].
With `Clc1ccc(CN2C3=NCCCN3c3ccccc32)cc1Cl`, the cell number change was -44.7%. Moreover, the AC50 under setting [2] is 29.1 µM [falling, single point].
For `CCn1ccnc1CN(C)Cc1cn(-c2ccc(C)cc2)nc1-c1cccc(C)c1`, the cell number change was -22.9%. The AC50 under setting [1] is 29.1 µM [falling, single point].
Consider `O=C(Cc1c(Sc2ccccc2)c2ccccc2n1Cc1ccccc1)NCCO`, for which the concentration at half-maximal activity (AC50) under setting [1] was 16.4 µM [falling, partial curve].
Turning to `COC(=O)c1ccccc1NC(=O)C1CC(=O)N(C2CCCCC2)C1` (configuration not stated), the cell number change was -9.99%. Moreover, under setting [2], the half-maximal activity concentration (AC50) was 4.11 µM [falling, partial curve].
As for `N#Cc1ccsc1NC(=O)CSc1ncnc2ccccc12`, the cell number change was -41.7%. The AC50 under setting [2] was 29.1 µM [falling, single point]. Besides, under setting [1], the AC50 was 3.26 µM [rising, partial curve, poor fit].
`CCOc1ccc(N=C2C(=O)Nc3ccc(C)c(Br)c32)cc1`: the cell number change is -2.7%.
Consider `CC(C)c1ccc(CCNC(=O)CCNS(=O)(=O)c2ccc(Br)cc2)cc1`, for which the cell number change worked out at 9.23%. Also, the AC50 under setting [1] is 0.0731 µM [rising, full curve, poor fit].
As to `CCOc1ccc(CSC(=N)N)cc1`, the cell number change is -7.7%.
On to `O=[N+]([O-])c1cc(S(=O)(=O)N2CCOCC2)ccc1OCc1cccc(Cl)c1`, for which the cell number change was -29.8%. Further, the AC50 under setting [1] was 2.31 µM [rising, partial curve].
For `C=CCNC(=O)CCCCC(=O)NCC=C`, the cell number change amounted to 1.01%.
In the case of `Cc1ccc2c(c1)NCCO2`, the cell number change was determined as 10.1%. Further, under setting [1], the AC50 was 4.11 µM [falling, partial curve, poor fit].
Regarding `CCN(CC(=O)Nc1ccc(NC(C)=O)cc1)C(=O)CSCC(=O)Nc1ccc(C)cc1`, the cell number change is 5.71%. Also, the concentration at half-maximal activity (AC50) under setting [1] was 3.26 µM [falling, single point].
As to `CCOC(=O)c1ccc(NC(=O)c2c(Cl)cc(C)nc2C)cc1`, the cell number change was -25.2%. In addition, the AC50 under setting [1] is 16.4 µM [falling, partial curve].
With `CCSc1cc(C)nc2c(-c3ccccc3)c(C)nn12`, the AC50 by setting is: under setting [2], 6.51 µM [rising, single point]; under setting [1], 6.51 µM [rising, single point].
Consider `COC(=O)CCCNC(=O)c1ccc2[nH]c(C)c(C)c2c1`, for which the cell number change turned out to be 66.9%. Besides, the concentration at half-maximal activity (AC50) under setting [2] was 20.6 µM [rising, single point]. Further, the AC50 under setting [1] was 16.4 µM [rising, partial curve].
Consider `CSCC[C@H](NC(=O)N1CCn2c1nc1ccccc12)C(=O)N1CCCCC1`, for which the cell number change is -7.26%. For the same molecule, the AC50 under setting [1] is 29.1 µM [falling, single point].
Turning to `O=C(COC(=O)c1ccc2ccccc2c1)Nc1ncc(C(F)(F)F)cc1Cl`, the cell number change was -39.3%. Further, under setting [2], the AC50 was 0.411 µM [falling, full curve]. Further, the AC50 under setting [1] was 0.731 µM [falling, full curve].
Take `COC(=O)CCCCCCCC(=O)Nc1nnc(C(F)(F)F)s1`: the cell number change was -27.5%. For the same molecule, the AC50 under setting [1] was 29.1 µM [falling, single point].
With `O=S(=O)(c1ccc(Cl)cc1)N1CCC(N2CCOCC2)CC1`, the cell number change was -27.9%.
`O=C(NNC(=O)c1cccnc1SCc1cccc([N+](=O)[O-])c1)c1ccc(F)cc1`: the cell number change stood at 22.1%. For the same molecule, under setting [1], the AC50 is 14.6 µM [rising, partial curve, poor fit].
As to `CCOC(=O)NC(=O)CSc1nnc(C2CC2)n1Cc1ccco1`, the cell number change worked out at 44.4%. The AC50 under setting [2] is 18.4 µM [rising, single point]. Under setting [1], the AC50 was 18.4 µM [rising, single point].
As to `COc1ccc(C)cc1NC(=O)CSc1nc(SC)ns1`, the cell number change is -2.7%. For the same molecule, the AC50 under setting [1] was 1.64 µM [rising, partial curve].
`Cn1cc(S(=O)(=O)Oc2ccccc2)c(=O)n(C)c1=O`: the cell number change was -29%.
As to `COc1ccc2nc(SC(C(=O)c3ccccc3)c3ccccc3)nc(C)c2c1` (configuration not stated), the cell number change came out at 10.4%. Besides, the half-maximal activity concentration (AC50) under setting [1] is 3.66 µM [falling, single point].
Take `Cc1ccc(C(=O)OCC(=O)NCCc2ccccc2)cc1S(=O)(=O)N1CCOCC1`: the AC50 under setting [2] is 6.51 µM [falling, single point] and the AC50 under setting [1] is 25.9 µM [rising, partial curve, poor fit].
`CCc1c(C(=O)NNC(=S)NC2CCCCC2)csc1C`: the cell number change was -29.5%. The AC50 under setting [1] is 20.6 µM [falling, single point].
For `COCCCN(C(=O)CCOc1ccccc1C)c1c(N)n(Cc2ccccc2)c(=O)[nH]c1=O`, the cell number change is -13.7%.
In the case of `CCCCC(CC)COC(=O)CCCCC(=O)OCC(CC)CCCC` (configuration not stated), the cell number change was -23.5%. In addition, under setting [1], the AC50 was 1.16 µM [rising, single point].
On to `NC(=O)NC(=O)CSc1nc(C2CCCCC2)n(-c2ccccc2)n1`, for which, under setting [1], the AC50 is 0.082 µM [rising, partial curve, poor fit].
`CCCCCCC(=O)Nc1nc(C)c(-c2csc(Nc3cccc(OC)c3)n2)s1`: the cell number change was -27.6%. Also, the AC50 under setting [1] is 9.2 µM [falling, partial curve, poor fit].
For the molecule `N/C(CSc1ccc(Cl)cc1)=N\S(=O)(=O)c1ccc(Cl)cc1`, the cell number change is -48.2%. Besides, the concentration at half-maximal activity (AC50) under setting [2] was 29.1 µM [falling, single point]. Also, the AC50 under setting [1] is 29.1 µM [falling, single point].
As for `CCOc1ccccc1COC(=O)c1cccc(-n2cnnn2)c1`, the cell number change is -27.6%. In addition, the AC50 under setting [1] was 8.2 µM [falling, partial curve, poor fit].
Consider `CC(C)(C)NCC(=O)c1c[nH]c2ccccc12`, for which the AC50 under setting [1] is 20.6 µM [rising, partial curve].
In the case of `Cc1ccc(NC(=O)CC(C)S(=O)(=O)c2ccc3c(c2)NC(=O)CO3)c(Cl)c1` (configuration not stated), the cell number change was -33.7%. Besides, the AC50 under setting [2] is 29.1 µM [falling, single point]. Besides, under setting [1], the AC50 was 8.2 µM [falling, single point].
Turning to `Cc1[nH]n(-c2ccccc2)c(=O)c1C(=O)c1ccccc1`, the cell number change is -2.58%.
As for `Cc1ccc(-c2csc(Nc3ccc(C(=O)O)cc3)[n+]2Cc2ccccc2)cc1`, the cell number change stood at 37.1%. Besides, the half-maximal activity concentration (AC50) under setting [2] was 1.46 µM [falling, partial curve]. Further, the AC50 under setting [1] was 1.84 µM [falling, partial curve].
With `NC(=O)c1ccc(NC(=O)CN2CCOCC2)cc1`, the cell number change is -1.37%. In addition, under setting [1], the AC50 is 6.51 µM [falling, single point].
On to `C#CCOC(=O)c1ccccc1C(=O)OCC#C`, for which the cell number change stood at 47%. Also, the half-maximal activity concentration (AC50) under setting [2] is 7.31 µM [rising, single point]. In addition, under setting [1], the AC50 is 23.1 µM [rising, partial curve].
With `CCOC(=O)c1c(CN(CC)CC)oc2cc(Br)c(O)cc12`, the cell number change was -0.348%. Moreover, the concentration at half-maximal activity (AC50) under setting [1] is 6.51 µM [rising, single point].
`CCC1CCCCN1C(=O)COc1c(Br)cc(Br)c2cccnc12` (configuration not stated): the cell number change was -35%.
Regarding `COc1ccc(S(=O)(=O)N2CCOCC2)cc1NC(=O)CN1C(=O)NC2(CCCCC2C)C1=O` (configuration not stated), the cell number change was 1.98%. Further, the AC50 under setting [2] is 0.082 µM [falling, full curve, poor fit].
Take `CCCCC(c1nnnn1CC1CCCO1)N1CCN(c2cccc(C)c2C)CC1` (configuration not stated): the cell number change was -6.88%. Besides, the AC50 under setting [1] is 29.1 µM [rising, single point].
In the case of `Cc1ccccc1Cn1c(=O)n(Cc2ccco2)c(=O)c2ccccc21`, the cell number change is -4.53%. Under setting [1], the AC50 was 8.2 µM [rising, partial curve].
Turning to `CC1Cc2ccccc2N1C(=O)C1CCN(S(=O)(=O)c2cccs2)CC1` (configuration not stated), the cell number change was -31%.
`COc1ccc(NC(=O)c2ccc(C(=O)c3ccccc3)o2)cc1`: the AC50 under setting [2] is 1.16 µM [rising, single point].
As to `CCOC(=O)c1cc2c3ccccc3n(CC)c2nc1N`, the cell number change is -13.8%.
Consider `Cc1nc2ccc(S(=O)(=O)N(C)CC(=O)NCc3ccc(N(C)C)cc3)cc2s1`, for which the cell number change was determined as 87.1%. For the same molecule, the concentration at half-maximal activity (AC50) under setting [2] is 18.4 µM [rising, single point].
In the case of `COC(=O)c1ccc(Oc2nc(Nc3ccc(F)cc3)nc(N3CCCC3)n2)cc1`, the cell number change is -27.9%. Also, the AC50 under setting [1] is 29.1 µM [falling, single point].
Consider `O=C(Nc1nc2ccccc2[nH]1)c1ccc(Cl)c(S(=O)(=O)N2CCCC2)c1`, for which the AC50 runs as follows: under setting [2], 5.17 µM [rising, single point]; under setting [1], 29.1 µM [rising, single point].
Consider `CCc1n[nH]c(=S)n1/N=C/c1cc(Br)c(O)c(OC)c1`, for which the cell number change worked out at 31.5%. Moreover, the AC50 under setting [1] was 0.13 µM [rising, full curve, poor fit].
In the case of `CC(C)C1Nc2ccc(C(=O)NCc3ccco3)cc2NC1=O` (configuration not stated), the cell number change was -5.56%. Under setting [1], the concentration at half-maximal activity (AC50) was 29.1 µM [rising, single point].
For the molecule `CCc1ccc(C(=O)N/N=C(\C)c2cccnc2)s1`, the cell number change turned out to be 5.41%. The AC50 under setting [1] was 29.1 µM [falling, single point].
Consider `CCOC(=O)C1CCN(S(=O)(=O)c2ccc(C)cc2)CC1`, for which the cell number change is 58.8%. Also, under setting [2], the AC50 was 16.4 µM [rising, partial curve].
With `Cc1ccc(S(=O)(=O)N2CCCN(C(=O)c3ccc(-n4cccn4)cc3)CC2)cc1`, the cell number change amounted to 20.4%. Also, under setting [1], the half-maximal activity concentration (AC50) is 32.6 µM [rising, single point].
For `COc1cc(C(=O)ONC(=O)c2ccc(OC(F)F)cc2)cc(OC)c1OC`, the cell number change amounted to 23.1%.
Regarding `CCOc1ccc(N(C)S(=O)(=O)c2ccc(C)c(C(=O)NCc3ccccc3OC)c2)cc1`, the cell number change is -25.1%. For the same molecule, the AC50 under setting [1] was 5.8 µM [falling, partial curve].
As to `CC(C)(C)c1cc(C(=O)NC2CC2)n(Cc2ccc(F)cc2)n1`, the half-maximal activity concentration (AC50) under setting [1] was 2.59 µM [rising, partial curve].
As to `N#C/C(=C\c1cccc(Oc2ccc(C(F)(F)F)cc2[N+](=O)[O-])c1)c1nc2ccccc2[nH]1`, the cell number change came out at 37.1%. Moreover, the AC50 under setting [2] was 2.06 µM [rising, partial curve].
Consider `C=CCNC(=O)c1c(N)n(-c2cccc(S(N)(=O)=O)c2)c2nc3ccccc3nc12`, for which the cell number change turned out to be 12.4%. Moreover, the half-maximal activity concentration (AC50) under setting [2] was 0.00411 µM [rising, full curve, poor fit].
